Sequences of proteins named here, by UniProt entry; tags and fusion partners are left off. A change or cut given only in a name is not applied to a line headed by its entry.
UniProt P31977: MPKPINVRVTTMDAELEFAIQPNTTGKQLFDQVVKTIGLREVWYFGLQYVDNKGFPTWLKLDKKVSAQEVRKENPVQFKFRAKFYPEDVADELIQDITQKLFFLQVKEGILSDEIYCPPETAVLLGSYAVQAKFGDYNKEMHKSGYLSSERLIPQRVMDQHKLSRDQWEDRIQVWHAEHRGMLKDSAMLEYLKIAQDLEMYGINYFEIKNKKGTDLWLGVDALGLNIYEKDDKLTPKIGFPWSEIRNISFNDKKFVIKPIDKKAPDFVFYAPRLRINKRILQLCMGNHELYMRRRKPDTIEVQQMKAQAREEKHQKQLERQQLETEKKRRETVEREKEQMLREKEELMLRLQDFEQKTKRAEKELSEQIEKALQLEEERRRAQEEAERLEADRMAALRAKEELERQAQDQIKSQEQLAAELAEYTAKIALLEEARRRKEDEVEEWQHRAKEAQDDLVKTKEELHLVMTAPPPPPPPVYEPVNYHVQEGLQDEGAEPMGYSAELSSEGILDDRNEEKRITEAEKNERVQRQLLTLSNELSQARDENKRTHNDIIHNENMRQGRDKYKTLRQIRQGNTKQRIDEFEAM
UniProt A0ACM8Q1Z9: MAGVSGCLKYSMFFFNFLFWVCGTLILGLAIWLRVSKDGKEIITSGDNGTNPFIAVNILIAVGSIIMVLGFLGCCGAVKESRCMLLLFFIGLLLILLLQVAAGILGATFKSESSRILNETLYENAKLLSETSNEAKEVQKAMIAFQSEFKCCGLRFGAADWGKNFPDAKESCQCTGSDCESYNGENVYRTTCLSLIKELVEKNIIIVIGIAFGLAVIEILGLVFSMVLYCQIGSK

According to publication PMC6775303:

Target: T1, claudin7 (rat (endogenous in ASML)) (UniProt Q9Z1L1)
T1 sequence: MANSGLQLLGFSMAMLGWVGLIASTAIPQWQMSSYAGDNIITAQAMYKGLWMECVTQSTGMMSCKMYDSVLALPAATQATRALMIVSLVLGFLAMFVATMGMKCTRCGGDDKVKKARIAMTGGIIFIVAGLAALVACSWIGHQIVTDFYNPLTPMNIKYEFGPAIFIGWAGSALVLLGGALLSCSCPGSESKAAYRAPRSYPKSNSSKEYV
Assay: affinity purification with mass spectrometry + co-IP; ASML-wt and ASML-cld7mP TEX lysed in HEPES buffer/1% Lubrol (mild lysis, 30 min, 4°C), precipitated with anti-cld7 and ProteinG-Sepharose; precipitates blotted with antibodies (Fig. 3B) and analysed by nanoLC-ESI-MS/MS (Fig. 3C)

| binding | Substance |
| --- | --- |
| binds | CD49c (rat (endogenous in ASML)) |
| binds | ezrin (from UniProt P31977 1-586) |
| binds | Tspan8 (from UniProt A0ACM8Q1Z9) |

Results are given in words; binding and its absence hold for the method and conditions named. Binding seen in cells or lysates may run through a third protein. These calls come from enrichment with a bait or labelling near it, and not all partners need be listed.
